According to article PMC6753678, “Fueling Open Innovation for Malaria Transmission-Blocking Drugs: Hundreds of Molecules Targeting Early Parasite Mosquito Stages” (Frontiers in Microbiology, 2019):
Like-named read-outs stand apart in the source and are kept apart here.

Test system: P. berghei ookinete development
[1] = unified cytotox / IC50, <10-fold red, >10-fold green

| SMILES | Assay tox ratio Pb ODA [1] | further results |
| --- | --- | --- |
| COc1cc(Nc2ncc3c(C)nc(-c4cccc(Nc5ccc(CN6CCS(=O)(=O)CC6)cc5)c4)n3n2)cc(OC)c1OC [TCMDC-136003] | – | Assay tox ratio Pb ODA: 176.19 |
| Cc1noc(C)c1-c1ccc2c(Nc3ccc(Cl)cc3)c(C(N)=O)cnc2c1.Cl [TCMDC-136010] | – | Assay tox ratio Pb ODA (red: <10-fold selectivity; green: >10-fold): 0.73 |
| Cc1[nH]c(C)c(-c2ccc(-c3ccc(C(F)(F)F)cc3C(F)(F)F)nc2)c(=O)c1Br [TCMDC-136013] | 39.99 | – |
| Cc1[nH]c(C)c(-c2ccc(CCc3cccc(C(F)(F)F)c3)nc2)c(=O)c1Cl [TCMDC-136014] | 57.71 | – |
| Cc1[nH]c(C)c(-c2ccc(-c3cc(C(F)(F)F)cc(C(F)(F)F)c3)nc2)c(=O)c1Br [TCMDC-136015] | 11.74 | – |
| Cc1[nH]c(C)c(-c2ccc(-c3ccc(OC(F)(F)F)cc3)nc2)c(=O)c1Br [TCMDC-136016] | 224.27 | – |
| Cc1[nH]c(C)c(-c2csc3ccccc23)c(=O)c1Cl [TCMDC-136017] | – | Assay tox ratio Pb ODA: 54.23 |
| Cc1noc(C)c1-c1ccc2c(Nc3ccc(C(F)(F)F)cc3)c(C(N)=O)cnc2c1.Cl [TCMDC-136019] | – | Assay tox ratio Pb ODA (red: <10-fold selectivity; green: >10-fold): 8.97 |
| Cc1nc2c(c([O-])c1Cl)-c1ccc(Oc3cccc(C(F)(F)F)c3)cc1C2=O.[Na+] [TCMDC-136021] | – | Assay tox ratio Pb ODA: 50.72 |
| Cc1noc(C)c1-c1ccc2c(Nc3ccc(C#N)cc3)c(C(N)=O)cnc2c1 [TCMDC-136029] | – | Assay tox ratio Pb ODA (red: <10-fold selectivity; green: >10-fold): 18.07 |
| Cc1[nH]c(C)c(-c2ccc(CCc3ccc(C(F)(F)F)cc3)nc2)c(=O)c1Cl [TCMDC-136051] | 395.77 | – |
| Cc1[nH]c(C)c(-c2ccc(-c3ccc(OC(F)(F)F)cc3)cc2)c(=O)c1Cl [TCMDC-136060] | 1199.36 | – |
| COc1ccc(Oc2ccc(-c3c(C)[nH]c(C)c(Cl)c3=O)cc2)cc1 [TCMDC-136134] | 237.00 | – |
| Cc1[nH]c(C)c(-c2ccc(-c3ccccc3Cl)nc2)c(=O)c1Br [TCMDC-136157] | 0.33 | – |
| Cc1[nH]c(C)c(-c2ccc(-c3ccc(Cl)cc3)nc2)c(=O)c1Br [TCMDC-136159] | 106.34 | – |
| Cc1[nH]c(C)c(-c2ccc(-c3cccc(Cl)c3)nc2)c(=O)c1Br [TCMDC-136160] | 47.77 | – |
| Cc1[nH]c(C)c(-c2ccc(-c3ccc4c(c3)OCO4)nc2)c(=O)c1Br [TCMDC-136161] | 69.74 | – |
| CCCCN(C)CC#Cc1ccc2[nH]c(C)c(Cl)c(=O)c2c1 [TCMDC-136185] | – | Assay tox ratio Pb ODA: 14.93 |
| Cc1[nH]c2ccc(-c3ccc(N(C)C)cc3)cc2c(=O)c1Cl [TCMDC-136188] | – | Assay tox ratio Pb ODA: 182.70 |
| Cc1[nH]cc(Br)c(=O)c1-c1ccc(Oc2ccccc2)cc1 [TCMDC-136196] | 270.71 | – |
| COc1ccc2ncc(F)c(CCN3CC[C@H](NCc4cc(C#N)c5c(c4)OCCO5)[C@H](O)C3)c2c1 [TCMDC-136207] | – | Assay tox ratio Pb ODA: 50.89 |
| COc1ccc2ncc(F)c(CCN3CCC(NCc4cc(C)c5c(c4)OCCO5)CC3)c2n1.Cl [TCMDC-136209] | – | Assay tox ratio Pb ODA (red: <10-fold selectivity; green: >10-fold): 12.28 |
| COc1ccc2ncc(F)c(CCN3CCC(NCc4cc(Br)c5c(c4)OCCO5)CC3)c2n1.Cl [TCMDC-136211] | – | Assay tox ratio Pb ODA (red: <10-fold selectivity; green: >10-fold): 4.26 |
| CCCCN(C)CC#Cc1ccc(-c2ccc3[nH]c(C)c(Br)c(=O)c3c2)cn1 [TCMDC-136285] | – | Assay tox ratio Pb ODA: 97.68 |
| Cc1[nH]c(C)c(-c2ccc(-c3cccc(OC(F)(F)F)c3)nc2)c(=O)c1Cl [TCMDC-136286] | 28.10 | – |
| Cc1[nH]c(C)c(-c2ccc(-c3cccc(Cl)c3)nc2)c(=O)c1Cl [TCMDC-136300] | 83.30 | – |
| Cc1[nH]c(C)c(-c2ccc(-c3ccc(Cl)cc3)nc2)c(=O)c1Cl [TCMDC-136301] | 103.86 | – |
| Cc1[nH]c(C)c(-c2ccc(-c3ccccc3Cl)nc2)c(=O)c1Cl [TCMDC-136303] | 437.25 | – |
| COc1ccc2ncc(F)c(NC(=O)C3CCC(NCc4cc5c(F)cccc5[nH]4)CC3)c2n1.Cl (centres unmarked) [TCMDC-136354] | – | Assay tox ratio Pb ODA (red: <10-fold selectivity; green: >10-fold): 14.39 |
